The other results are listed elsewhere or left out. Single values are uncertain here, since repeats match poorly.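 Free-swimming zebrafish larvae were scored for O-bend response probability to dark flashes (naive: first five; training: remaining flashes of four 60-flash blocks; test: later 60-flash block) and for turning toward alternating leftward/rightward LED motion (OMR). Six treated larvae were compared with sixty 0.1% DMSO controls; |SSMD|≥2 defined a hit.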
Legend:
Details in all cases: 10 µM; pre-incubation: 30-90 min
[1] = test system: Danio rerio larvae (5 dpf, TLF); assay: OMR-Perf (SSMD vs DMSO vehicle); higher = higher than vehicle (e.g. higher dark-flash O-bend response probability, or better optomotor performance)
[2] = test system: Danio rerio larvae (5 dpf, TLF); assay: Prob-Test (SSMD vs DMSO vehicle); higher = higher than vehicle (e.g. higher dark-flash O-bend response probability, or better optomotor performance)
[3] = test system: Danio rerio larvae (5 dpf, TLF); assay: Prob-Naive (SSMD vs DMSO vehicle); higher = higher than vehicle (e.g. higher dark-flash O-bend response probability, or better optomotor performance)
[4] = test system: Danio rerio larvae (5 dpf, TLF); assay: Prob-Train (SSMD vs DMSO vehicle); higher = higher than vehicle (e.g. higher dark-flash O-bend response probability, or better optomotor performance)

SMILES | OMR-Perf [1] | Prob-Test [2] | Prob-Naive [3] | Prob-Train [4]
O=C1c2c(O)cccc2[C@H]([C@@H]2O[C@H](CO)[C@H](O)[C@H](O)[C@H]2O)c2cc(CO)cc(O)c21 [Aloin] | 0.555 | 0.232 | -0.247 | 0.597
COc1nc(N)nc2c1ncn2[C@@H]1O[C@H](CO)[C@@H](O)[C@@H]1O [Nelarabine] | 0.265 | 0.435 | 0.459 | 0.126
CC[C@H]1OC(=O)[C@@H](C)[C@@H](O[C@H]2C[C@@](C)(OC)[C@@H](O)[C@H](C)O2)[C@H](C)[C@@H](O[C@@H]2O[C@H](C)C[C@H](N(C)C)[C@@H]2O)[C@](C)(O)C[C@@H](C)CN(C)[C@H](C)[C@@H](O)[C@]1(C)O [Azithromycin] | -0.78 | 0.5 | 0.0343 | 0.347
CC1(C)CCC[C@@]2(C)[C@H]3CC(=O)O[C@]3(C)CC[C@@H]12 [Sclareolide] | -0.94 | -1.13 | -1.35 | -2.46
CC(=O)Oc1ccccc1C(=O)O [Aspirin] | 0.0153 | 0.0487 | 0.464 | 0.281
O=C(O)Cn1nnc(-c2cc(N3CCC(Oc4cc(F)ccc4Br)CC3)no2)n1 | -0.714 | -0.411 | 0 | -0.137
C[C@@H]1C/C=C/C=C/C=C/C=C/[C@H](O[C@@H]2O[C@H](C)[C@@H](O)[C@H](N)[C@H]2O)C[C@@H]2O[C@](O)(C[C@@H](O)C[C@H]3O[C@@H]3/C=C/C(=O)O1)C[C@H](O)[C@H]2C(=O)O [Natamycin] | -0.139 | 0.769 | 0.255 | 0.469
COc1cc2c(cc1-c1c(C)noc1C)ncc1[nH]c(=O)n([C@H](C)c3ccccn3)c12 | 0.212 | 0.297 | 0.587 | 0.135
Cc1cc(C(=O)NOCCO)c(Nc2ccc(I)cc2F)n(C)c1=O | -0.482 | -1.56 | -0.0535 | -1.07
CCn1c(=O)c2c(nc(/C=C/c3ccc(OC)c(OC)c3)n2C)n(CC)c1=O [Istradefylline] | 0.239 | -0.0247 | 0.42 | -1.25
CC(C)c1cc2c(N3CCN(C4=NCC(C)(C)S4)CC3)ncnc2s1 [MI-3 (Menin-MLL Inhibitor)] | -0.446 | -0.476 | 0.587 | -0.274
CC(O)(P(=O)(O)O)P(=O)(O)O [Etidronate (Didronel)] | -0.594 | -0.307 | 0.549 | -0.535
C[C@@H]1C[C@H]2[C@@H]3CCC4=CC(=O)C=C[C@]4(C)[C@]3(F)[C@H](O)C[C@]2(C)[C@]1(O)C(=O)CO [Dexamethasone (DHAP)] | 1.57 | 0.308 | -0.372 | 0.241
C1=C/COCc2cc(ccc2OCCN2CCCC2)Nc2nccc(n2)-c2cccc(c2)COC/1 [Pacritinib (SB1518)] | -0.293 | 0.773 | 0.227 | 0.0414
Nc1cccc2c1CN(C1CCC(=O)NC1=O)C2=O (stereo not drawn) [Lenalidomide (CC-5013)] | -0.528 | -0.0369 | -0.162 | -0.316
CC(c1cc2ccccc2s1)N(O)C(N)=O (stereo not drawn) [Zileuton] | 0.287 | -0.408 | -0.235 | -0.536
COc1nc(C)nc(Cl)c1NC1=NCCN1 [Moxonidine] | -0.54 | -0.337 | 0.285 | 0.127
C=C(NC(=O)C(=C)NC(=O)c1csc(C2=N[C@@H]3c4csc(n4)[C@H]4NC(=O)c5csc(n5)[C@H]([C@](C)(O)[C@@H](C)O)NC(=O)[C@H]5CSC(=N5)/C(=C/C)NC(=O)[C@H]([C@@H](C)O)NC(=O)c5csc(n5)[C@]3(CC2)NC(=O)[C@H](C)NC(=O)C(=C)NC(=O)[C@H](C)NC(=O)[C@H]([C@@H](C)CC)N[C@@H]2C=Cc3c([C@H](C)O)cc(nc3[C@H]2O)C(=O)O[C@@H]4C)n1)C(N)=O [Thiostrepton] | 0.0385 | -0.41 | -0.154 | -0.113
Nc1nc(N)c2nc(-c3ccccc3)c(N)nc2n1 [Triamterene] | 0.241 | 0.38 | 0.464 | 0.335
C[C@H](N[C@@H](CCc1ccccc1)C(=O)O)C(=O)N1CCC[C@H]1C(=O)O.O.O [Enalaprilat Dihydrate] | 0.161 | -0.0161 | -0.29 | 0.086
COc1cc(N2CCC(N(C)C)CC2)ccc1Nc1ncc(Cl)c(Nc2ccccc2P(C)(C)=O)n1 | 0.357 | 0.0861 | 0.319 | 0.27
Cc1cnc(NC(=O)C2=C(O)c3ccccc3S(=O)(=O)N2C)s1 [Meloxicam] | -0.13 | -0.941 | 0.184 | -1.75
NS(=O)(=O)c1cc2c(cc1Cl)NC(CSCc1ccccc1)=NS2(=O)=O [Benzthiazide] | -0.548 | -0.563 | -0.362 | 0.231
COC(=O)[C@@H]1[C@H]2C[C@H]3c4[nH]c5ccccc5c4CCN3C[C@@H]2CC[C@@H]1O.Cl [Yohimbine HCl] | -0.357 | -0.736 | 0.516 | 0.321

Two consecutive compounds out of the list so far, for reference:
SMILES | OMR-Perf [1] | Prob-Test [2] | Prob-Naive [3] | Prob-Train [4]
O=C(O)Cn1nnc(-c2cc(N3CCC(Oc4cc(F)ccc4Br)CC3)no2)n1 | -0.714 | -0.411 | 0 | -0.137
C[C@@H]1C/C=C/C=C/C=C/C=C/[C@H](O[C@@H]2O[C@H](C)[C@@H](O)[C@H](N)[C@H]2O)C[C@@H]2O[C@](O)(C[C@@H](O)C[C@H]3O[C@@H]3/C=C/C(=O)O1)C[C@H](O)[C@H]2C(=O)O [Natamycin] | -0.139 | 0.769 | 0.255 | 0.469

Continuation:

SMILES | OMR-Perf [1] | Prob-Test [2] | Prob-Naive [3] | Prob-Train [4]
Cn1c(=O)c2[nH]cnc2n(C)c1=O.Cn1c(=O)c2[nH]cnc2n(C)c1=O.NCCN [Aminophylline] | 0.0521 | -0.503 | -1.02 | -0.413
CC(=O)NCC(=O)N1[C@H]2CC[C@H]1c1cc(Nc3ncc(C(F)(F)F)c(NC4CCC4)n3)ccc12 | -0.303 | 0.551 | -0.193 | 0.493
Cn1cc(C2=C(c3ccc(Cl)cc3Cl)C(=O)NC2=O)c2ccccc21 | -0.557 | -0.508 | 0.147 | -0.611
CN(C)CCCC1(c2ccc(F)cc2)OCc2cc(C#N)ccc21.O=C(O)C(=O)O (stereo not drawn) [Escitalopram Oxalate] | 0.198 | 0.323 | -0.217 | -0.681
CC(C)Cc1ccc(C(C)C(=O)O)cc1 (stereo not drawn) [Ibuprofen] | -0.725 | -0.944 | -0.484 | -1.74
N[C@H](C(=O)O)[C@H](O)c1ccc(O)c(O)c1 [Droxidopa (L-DOPS)] | 0.289 | -0.118 | 0.549 | 0.00119
Nc1ncnc2c1c(-c1cccc(OCc3ccccc3)c1)cn2[C@H]1C[C@@H](CN2CCC2)C1 | 0.078 | 0.115 | -0.0576 | 0.0446
Cc1ccc(O)c([C@H](CCN(C(C)C)C(C)C)c2ccccc2)c1.O=C(O)[C@H](O)[C@@H](O)C(=O)O [Tolterodine tartrate] | -0.594 | 0.239 | -0.0304 | -0.38
C[C@H](NC(=O)Cc1cc(F)cc(F)c1)C(=O)N[C@H](C(=O)OC(C)(C)C)c1ccccc1 | 0.0379 | -0.877 | -0.562 | -0.141
CC1CCc2c(N3CCC(O)CC3)c(F)cc3c(=O)c(C(=O)O)cn1c23 (stereo not drawn) [Nadifloxacin] | -0.041 | -0.78 | -0.376 | -0.0471
C[C@H](CCC(=O)O)[C@@H]1CC[C@H]2[C@@H]3[C@H](O)C[C@@H]4C[C@H](O)CC[C@]4(C)[C@@H]3CC[C@@]21C [Chenodeoxycholic Acid] | -0.186 | -0.787 | 0.184 | -0.623
COc1ccc(-c2ccc3cc(C(=O)O)ccc3c2)cc1C12CC3CC(CC(C3)C1)C2 [Adapalene] | 0.145 | 0.357 | 0.573 | 0.15
CC(=O)O[C@H]1C[C@@H]2CC[C@@H]3[C@@H](CC[C@]4(C)[C@H](OC(C)=O)[C@@H]([N+]5(C)CCCCC5)C[C@@H]34)[C@@]2(C)C[C@@H]1N1CCCCC1.[Br-] [Vecuronium Bromide] | -0.166 | 0.072 | -0.12 | -0.122
C[C@@H]1C(SC2CN(C3=NCCS3)C2)=C(C(=O)OCOC(=O)C(C)(C)C)N2C(=O)[C@H]([C@@H](C)O)[C@H]12 [Tebipenem Pivoxil] | -0.587 | 0.0631 | 0.402 | 0.309
CNC[C@H](O)c1ccc(O)c(O)c1.Cl [Epinephrine HCl] | -0.0773 | -0.188 | -0.276 | -0.591
O=C(Oc1ccccc1C(=O)O)c1ccccc1O [Sasapyrine] | -0.293 | 0.0139 | -0.178 | -0.484
CCc1cncnc1N1CCN(Cc2nc3cc(C(F)(F)F)ccc3[nH]2)CC1 | -0.45 | 0.00135 | 0.564 | -0.0967
C=CCc1cc(OC)c(O)c(C(=O)NCCO)c1 [Alibendol] | -0.56 | -0.0688 | 0.517 | -0.307
C[C@H](NC(=O)[C@@H](O)c1cc(F)cc(F)c1)C(=O)N[C@@H]1C(=O)N(C)c2ccccc2-c2ccccc21 | 0.123 | -0.386 | -0.205 | 0.0776
COc1ccc2cc(-c3[nH]c(-c4ccc(S(C)=O)cc4)nc3-c3ccncc3)ccc2c1 (stereo not drawn) [Tie2 kinase inhibitor] | -0.113 | -0.228 | -0.385 | -0.194
CN(C)CCC(c1ccc(Cl)cc1)c1ccccn1.O=C(O)/C=C\C(=O)O (stereo not drawn) [Chlorpheniramine Maleate] | 0.157 | 1.01 | -0.027 | 0.146
NC(=O)c1ncn([C@H]2O[C@H](CO)[C@@H](O)[C@H]2O)n1 [Ribavirin] | -0.653 | -0.0969 | 0.402 | 0.267
CCCN[C@H]1CCc2nc(N)sc2C1.Cl.Cl.O [Pramipexole dihydrochloride monohydrate] | -0.356 | 0.18 | 0.131 | 0.0122

— the supplement of paper PMC10727501
